Data taken from patent publication US20090233850A1.
No constants are given. Whether binding was seen depends on the method and setting. Some binding calls cover weakened binding; strength is not graded here. Where a sequence is shown, tags or fusion partners need not be part of it.

How the values were obtained:
[1] = molecular target: recombinant monomeric HIV-1 YU2 gp120, produced in Drosophila S2 cells (HIV-1 YU2) (UniProt P35961); assay: ELISA and SPR on gp120
[2] = molecular target: recombinant monomeric HIV-1 YU2 gp120, produced in Drosophila S2 cells (HIV-1 YU2) (UniProt P35961); assay: sCD4 and 17b competition ELISAs on adsorbed YU2 gp120
[3] = molecular target: recombinant monomeric HIV-1 YU2 gp120, produced in Drosophila S2 cells (HIV-1 YU2) (UniProt P35961); assay: ELISA, adsorbed YU2 gp120, polyclonal anti-CVN detection
[4] = molecular target: recombinant monomeric HIV-1 YU2 gp120, produced in Drosophila S2 cells (HIV-1 YU2) (UniProt P35961); assay: competition ELISA on plate-adsorbed YU2 gp120; competitor mAb 2G12 at 50 ug/ml; percent of control without L5
[5] = molecular target: recombinant monomeric HIV-1 YU2 gp120, produced in Drosophila S2 cells (HIV-1 YU2) (UniProt P35961); assay: SPR (Biacore 3000), YU2 gp120 amine-coupled to a CM5 chip, L5 as analyte, referenced to a 2B6R antibody surface
[6] = molecular target: recombinant monomeric HIV-1 YU2 gp120, produced in Drosophila S2 cells (HIV-1 YU2) (UniProt P35961); assay: competition ELISA on plate-adsorbed YU2 gp120; blocked ligand mAb 17b at 2 ug/ml; percent of uninhibited control
[7] = molecular target: recombinant monomeric HIV-1 YU2 gp120, produced in Drosophila S2 cells (HIV-1 YU2) (UniProt P35961); assay: competition ELISA on plate-adsorbed YU2 gp120; competitor mAb F105 at a 1:20,000 dilution; percent of control without L5
[8] = molecular target: recombinant monomeric HIV-1 YU2 gp120, produced in Drosophila S2 cells (HIV-1 YU2) (UniProt P35961); assay: ELISA, 100 ng YU2 gp120 adsorbed on the plate, serial dilutions of L5, detection with polyclonal anti-CVN, BSA background subtracted
[9] = molecular target: recombinant monomeric HIV-1 YU2 gp120, produced in Drosophila S2 cells (HIV-1 YU2) (UniProt P35961); assay: competition ELISA on plate-adsorbed YU2 gp120; blocked ligand sCD4 at 0.5 ug/ml, detected with anti-CD4; percent of uninhibited control

Measured: binding

B1: L5 chimera (CVN-12p1): CVN, linker of five Gly4Ser repeats, 12p1, C-terminal hexa-histidine tag (protein)
chain: LGKFSQTCYNSAIQGSVLTSTCERTNGGYNTSSIDLNSVIENVDGSLKWQPSNFIETCRNTQLAGSSELAAECKTRAQQFVSTKINLDDHIANIDGTLKYEGSGGGGSGGGGSGGGGSGGGGSGGGGSRINNIPWSEAMMHHHHHH
binds: all assays above
